Reference: PMC3487762
These are yes or no findings as the source states them, for the method shown. For some assays here: In cells and extracts the contact can be indirect. Some results given as binding are weak or reduced against the parent protein; the word gives no strength. For some assays here: Where a sequence is shown, tags or fusion partners need not be part of it. One block for each binder: values may come before it.

How the values were obtained:
[1] = target: T1, Poz1 in pGBKT7 (bait) (S. pombe) (UniProt O13852); assay: two-hybrid; Rap1 fragments in pACT2 (prey), entire ORF of poz1+ or taz1+ in pGBKT7 (bait); S. cerevisiae Y190; ß-galactosidase activity
T1 sequence: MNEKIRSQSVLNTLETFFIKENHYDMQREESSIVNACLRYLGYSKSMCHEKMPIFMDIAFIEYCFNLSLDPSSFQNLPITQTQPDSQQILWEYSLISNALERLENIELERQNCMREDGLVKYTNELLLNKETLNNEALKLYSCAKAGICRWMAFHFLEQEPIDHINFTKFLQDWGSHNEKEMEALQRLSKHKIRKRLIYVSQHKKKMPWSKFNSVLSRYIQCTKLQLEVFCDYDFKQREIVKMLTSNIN

[2] = target: T2, Taz1 in pGBKT7 (bait) (S. pombe) (UniProt P79005); assay: as above
T2 sequence: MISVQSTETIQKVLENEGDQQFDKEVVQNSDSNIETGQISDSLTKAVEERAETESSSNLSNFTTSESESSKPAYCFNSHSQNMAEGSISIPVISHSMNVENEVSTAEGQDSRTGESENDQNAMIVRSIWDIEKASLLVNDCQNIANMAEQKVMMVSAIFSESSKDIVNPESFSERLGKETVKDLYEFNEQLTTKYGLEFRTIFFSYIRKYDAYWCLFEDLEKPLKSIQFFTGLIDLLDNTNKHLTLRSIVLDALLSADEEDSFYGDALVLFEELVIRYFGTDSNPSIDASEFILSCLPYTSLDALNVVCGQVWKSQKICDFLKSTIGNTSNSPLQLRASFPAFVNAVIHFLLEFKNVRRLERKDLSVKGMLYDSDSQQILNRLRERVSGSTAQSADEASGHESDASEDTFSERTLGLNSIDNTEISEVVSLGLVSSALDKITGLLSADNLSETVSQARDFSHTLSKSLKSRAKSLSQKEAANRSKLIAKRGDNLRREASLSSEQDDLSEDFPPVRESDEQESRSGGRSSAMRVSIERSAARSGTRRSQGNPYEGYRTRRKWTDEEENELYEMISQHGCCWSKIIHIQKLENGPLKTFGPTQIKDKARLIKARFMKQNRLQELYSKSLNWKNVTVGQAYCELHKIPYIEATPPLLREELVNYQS

[3] = target: T3, Bqt1-Bqt2 complex (Gal4-BD-Bqt1 and Bqt2 from pBridge-bqt1+/bqt2+) (S. pombe) (UniProt Q92358+Q9US52); assay: yeast three-hybrid; Rap1 fragments in pACT2 (prey), pBridge-bqt1+/bqt2+ expressing Gal4-BD-Bqt1 and Bqt2 (bait); S. cerevisiae Y190; ß-galactosidase activity
T3 sequence 1: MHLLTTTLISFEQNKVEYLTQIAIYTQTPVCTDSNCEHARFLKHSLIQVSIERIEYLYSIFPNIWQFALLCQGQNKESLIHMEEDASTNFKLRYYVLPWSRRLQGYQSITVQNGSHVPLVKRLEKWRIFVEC
T3 sequence 2: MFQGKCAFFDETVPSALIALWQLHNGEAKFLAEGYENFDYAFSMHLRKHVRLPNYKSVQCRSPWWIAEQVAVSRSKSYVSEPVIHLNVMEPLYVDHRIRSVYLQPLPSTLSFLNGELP

[4] = target: T4, GST-Rap1 #4 (360–520 a.a.) (S. pombe) (UniProt Q96TL7); assay: pull-down; GST-Rap1 proteins (~1 µg) bound to glutathione beads mixed with S. pombe cell extracts; washed with TNE buffer (40 mM Tris-HCl pH 7.5, 150 mM NaCl, 5 mM EDTA, 50 mM NaF, 20 mM ß-glycerophosphate); SDS-PAGE and western blotting with anti-Myc, anti-FLAG, anti-HA; only the target purified
T4 sequence: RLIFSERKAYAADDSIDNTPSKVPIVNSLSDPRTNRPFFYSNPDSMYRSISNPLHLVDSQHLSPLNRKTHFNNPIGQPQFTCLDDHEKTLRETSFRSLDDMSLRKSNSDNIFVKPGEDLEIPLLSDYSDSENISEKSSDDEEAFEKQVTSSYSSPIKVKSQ

[5] = target: T5, GST-Rap1 #5 (501–693 a.a.) (S. pombe) (UniProt Q96TL7); assay: as above
T5 sequence: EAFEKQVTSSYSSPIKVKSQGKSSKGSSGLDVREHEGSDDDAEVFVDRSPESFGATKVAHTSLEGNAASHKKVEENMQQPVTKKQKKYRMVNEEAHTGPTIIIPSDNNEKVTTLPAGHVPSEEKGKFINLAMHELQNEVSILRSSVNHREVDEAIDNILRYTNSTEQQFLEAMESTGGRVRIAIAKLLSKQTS

binding [2]: binds
B2: Rap1 RCT domain (639–693 a.a.) in pACT2 (prey) (domain or fragment, UniProt Q96TL7 639-693)
chain: VSILRSSVNHREVDEAIDNILRYTNSTEQQFLEAMESTGGRVRIAIAKLLSKQTS

binding [5]: binds
B5: Taz1-HA (protein, UniProt P79005 1-663)
chain: T2 sequence

Further lines, the binder ahead of its results:

B1: Rap1 457–512 a.a. in pACT2 (prey) (domain or fragment, UniProt Q96TL7 457-512)
chain: LDDMSLRKSNSDNIFVKPGEDLEIPLLSDYSDSENISEKSSDDEEAFEKQVTSSYS
binding [1]: binds

B3: Rap1 311–370 a.a. in pACT2 (prey) (domain or fragment, UniProt Q96TL7 311-370)
chain: VDPAILSDRETSAMLDETSDNEVADIDDQMIERKYLFSASEPNTVKSTNRLIFSERKAYA
binding [3]: binds

B4: Poz1-Flag (protein, UniProt O13852 1-249)
chain: T1 sequence
binding [4]: binds
